Source: PMC8201173, “Inhibition of Carbonic Anhydrase IX Promotes Apoptosis through Intracellular pH Level Alterations in Cervical Cancer Cells” (International Journal of Molecular Sciences, 2021)

Legend:
Assay type in all cases: cell-based
Conditions in all cases: selectivity index
[1] = test system: MDA-MB-231; assay: WST-1 cytotoxicity assay, MDA-MB-231
Description: (§1) We used cancer and normal cell lines purchased from ATCC (American Type Culture Collection) and ECACC (European Collection of Authenticated Cell Cultures) and stored in liquid nitrogen.
(§2) The cells were planted in 96 well plates (10^4 cells per well). […] WST-1 reactive of 10 µL was added in all wells. Following 4 h incubation, the measurements were carried out in a plate reader (Spectramax M5, BioTek, VT, USA) at wavelengths of 450 and 630 nm.

[2] = test system: HeLa cells; assay: WST-1 cytotoxicity assay, HeLa
Description: as §1, §2

[3] = test system: HT-29; assay: WST-1 cytotoxicity assay, HT-29
Description: as §1, §2

O=c1[nH]cc(F)c(=O)[nH]1 [5-FU, 5-Fluorouracil]
SI HEK-293/MDA-MB-231 ([1]; 24 h): 1.0 µM | SI HEK-293/MDA-MB-231 ([1]; 48 h): 0.5 µM | SI HEK-293/MDA-MB-231 ([1]; 72 h): 0.6 µM | SI HEK-293/HELA ([2]; 24 h): >1.1 µM | SI HEK-293/HELA ([2]; 48 h): 0.6 µM | SI HEK-293/HELA ([2]; 72 h): 0.9 µM | SI HEK-293/HT-29 ([3]; 24 h): 0.9 µM | SI HEK-293/HT-29 ([3]; 72 h): 0.7 µM
